{"source": "patent US12723243B2", "about": "“Archaeal pyrrolysyl tRNA synthetases for orthogonal use” (European Molecular Biology Laboratory, priority 2016, dated 2026)", "key": {"[1]": {"tested_on": "HEK293T cells", "test": "Intracellular localization by PylRS immunostaining and tRNA^Pyl FISH in HEK293T cells", "format": "cell-based", "conditions": "one day after transfection, anti-PylRS immunostaining / FISH"}, "[2]": {"tested_on": "COS-7 cells", "test": "Intracellular localization by PylRS immunostaining and tRNA^Pyl FISH in COS-7 cells", "format": "cell-based", "conditions": "COS-7, one day after transfection, anti-PylRS immunostaining / FISH"}}, "data": [{"molecule": "PylRS^AF: mutant M. mazei pyrrolysyl tRNA synthetase comprising amino acid substitutions Y306A and Y384F, SEQ ID NO:2 (protein, Methanosarcina mazei PylRS Y306A, Y384F mutant; MUTAGEN 306 Y306A mutation; MUTAGEN 384 Y384F mutation) MDKKPLNTLISATGLWMSRTGTIHKIKHHEVSRSKIYIEMACGDHLVVNNSRSSRTARALRHHKYRKTCKRCRVSDEDLNKFLTKANEDQTSVKVKVVSAPTRTKKAMPKSVARAPKPLENTEAAQAQPSGSKFSPAIPVSTQESVSVPASVSTSISSISTGATASALVKGNTNPITSMSAPVQASAPALTKSQTDRLEVLLNPKDEISLNSGKPFRELESELLSRRKKDLQQIYAEERENYLGKLEREITRFFVDRGFLEIKSPILIPLEYIERMGIDNDTELSKQIFRVDKNFCLRPMLAPNLANYLRKLDRALPDPIKIFEIGPCYRKESDGKEHLEEFTMLNFCQMGSGCTRENLESIITDFLNHLGIDFKIVGDSCMVFGDTLDVMHGDLELSSAVVGPIPLDREWGIDKPWIGAGFGLERLLKVKHDFKNIKRAARSESYYNGISTNL", "values": [{"measurement": "intracellular localization", "setting": "[1]", "result": "localized predominantly in the nucleus"}, {"measurement": "intracellular localization", "setting": "[2]", "result": "localized predominantly in the nucleus"}]}]}
